pKi: −log10 of the molar value. Where a name gives a salt, the structure may show the parent alone. Some of these results come from one statement about several compounds together.
Target: T1, alpha 1 adrenergic receptor subtypes (1A, 1B, 1D)
T1 construct: rows headed: BA at all subtypes; other: subnanomolar range; Ki at alpha 1 adrenergic receptor subtypes; other: result in words
Type: binding, human
Details: read-out: BA at all subtypes

## CCOc1ccccc1OCCN[C@H](C)Cc1ccc(OC)c(S(N)(=O)=O)c1 [tamsulosin, (−)-(R)-5-[2-[[2-(o-Ethoxyphenoxy)ethyl]amino]propyl]-2-methoxybenzenesulfon-amide, monohydrochloride]
  pKi: > 9.00

## COc1cc2nc(N3CCN(C(=O)c4ccco4)CC3)nc(N)c2cc1OC [prazosin, 1-(4-amino-6,7-dimethoxy-2-quinazolinyl)-4-(2-furoyl) piperazine]
  pKi: > 9.00

— US20230372302A1 (priority 2019, published 2023)
